Measurements reported in article PMC10329682.
No constants are given. Whether binding was seen depends on the method and setting. Binding seen in cells or lysates may run through a third protein. Some entries that bind do so weakly or less than the wild type.

The chains behind the UniProt entries cited, without tags or fusion partners. Where a name states a change or a piece, a line headed by the entry shows the natural chain unless it says otherwise.
UniProt Q16763: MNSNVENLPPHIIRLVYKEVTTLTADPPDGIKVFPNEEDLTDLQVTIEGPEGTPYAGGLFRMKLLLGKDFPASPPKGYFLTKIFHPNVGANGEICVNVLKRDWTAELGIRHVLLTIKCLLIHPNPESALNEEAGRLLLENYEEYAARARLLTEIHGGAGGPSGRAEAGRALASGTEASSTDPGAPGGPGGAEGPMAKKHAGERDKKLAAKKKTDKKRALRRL
UniProt P19474: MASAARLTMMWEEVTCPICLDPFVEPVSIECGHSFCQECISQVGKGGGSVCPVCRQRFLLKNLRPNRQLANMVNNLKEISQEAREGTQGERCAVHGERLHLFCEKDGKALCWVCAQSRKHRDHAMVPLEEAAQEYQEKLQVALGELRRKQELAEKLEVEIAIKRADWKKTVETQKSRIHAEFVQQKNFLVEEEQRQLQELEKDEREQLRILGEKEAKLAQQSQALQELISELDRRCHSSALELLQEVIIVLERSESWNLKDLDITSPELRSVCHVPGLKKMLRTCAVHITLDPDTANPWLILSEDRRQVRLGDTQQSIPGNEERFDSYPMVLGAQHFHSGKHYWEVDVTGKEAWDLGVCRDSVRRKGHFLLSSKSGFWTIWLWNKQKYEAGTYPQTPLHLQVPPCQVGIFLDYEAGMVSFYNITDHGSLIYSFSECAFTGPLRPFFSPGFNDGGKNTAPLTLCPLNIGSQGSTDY

Target: Ubiquitin-conjugating enzyme E2S (human (endogenous in T24 and UM-UC-3)) (UniProt Q16763)
Test: co-IP; endogenous proteins in lysates of wild-type T24 and UM-UC-3 cells; 2 ug of the corresponding antibody overnight at 4 C, Protein A/G magnetic beads 2 h at room temperature, western blot

- binding: binds
Substance: tripartite motif containing 21 (from UniProt P19474 1-475) (enzyme)
